# Measured values published in PubChem BioAssay AID540276 (National Center for Advancing Translational Sciences (NCATS), 2011).
# In all, about 300,000 compounds went through this assay and about 5,400 (1.8%) were called active. The inconclusive results got no clear call from the source; some entries with a clear call stand among them for comparison. Calls follow the shape of the full dose curve; tested in HEK293 cells. Potencies of inconclusive entries are doubtful fits and often do not repeat.
# Assay: qHTS for inhibitors of binding or entry into cells for Marburg Virus
# Conditions: Marburg virus pseudotyped entry inhibition, cell reporter; activity change, negative = inhibition: at 37.8 µM (top of the series) unless noted
# % is scaled to controls: 0 for no effect and ±100 for the full control effect; potency is read from the fitted curve at half-maximal effect.
SMILES,Potency,"activity change, negative = inhibition"
O=C(COC(=O)c1ccccc1O)Nc1ccc2ccccc2c1,"inconclusive: 15.8 µM [inhibitor, single point]",
COCCCNC(=O)c1ccc(CS(=O)(=O)c2ccccc2C)o1,,inactive: 27.7% [at 46.1 µM]
COC(=O)c1[nH]c2c(c1C)C(=O)CC(c1cccs1)C2 (stereo unspecified),"inconclusive: 1.12 µM [inhibitor, full curve, poor fit]",
CCn1c(SCC(=O)Nc2cc(C)c(Cl)cc2OC)nnc1-c1ccco1,"inconclusive: 16.4 µM [inhibitor, partial curve, poor fit]",
O=C(N/N=C/c1cccc(F)c1)c1cc(-c2ccco2)nc2ccccc12,"inconclusive: 35.5 µM [inhibitor, single point]",
Cc1nnc(SCC(=O)Nc2ccc3c(c2)OCO3)s1,"inconclusive: 2.82 µM [inhibitor, partial curve]",
Cc1nc2ccccc2n1C1CCN(Cc2nnnn2CCc2ccccc2)CC1,"inconclusive: 20.6 µM [inhibitor, partial curve, poor fit]",
CCC(C)OC(=O)n1ccc(C(=O)Nc2nccs2)n1 (stereo unspecified),,inactive: 6.95%
CCn1c(=O)c(C(=O)NNC(=O)Cc2ccccc2)c(O)c2ccccc21,"inconclusive: 0.562 µM [activator, full curve, poor fit]",
CCOC(=O)c1[nH]c(CSc2nnc(-c3ccc(OC)cc3)o2)c(C(=O)OCC)c1C,inactive,
c1coc(Cn2c(-c3ccco3)nc3ccccc32)c1,,inactive: -9.38%
COc1ccc(NS(=O)(=O)c2ccc(N3CCOCC3)c(NC(=O)c3cccc(F)c3)c2)cc1,"inconclusive: 23.1 µM [inhibitor, partial curve, poor fit]",
Cc1ccc(-c2cc(C(=O)Oc3ccc(C#N)cc3)no2)cc1,"inconclusive: 6.31 µM [activator, single point]",
CC1CCN(S(=O)(=O)c2ccc(NC(=O)Cn3nnc(-c4ccccc4)n3)cc2)CC1,"inconclusive: 29.1 µM [inhibitor, single point]",
Fc1ccc(C2=CSC3=NCCN23)cc1,,inactive: 20.8% [at 46.1 µM]
Cc1cccc(NC(=O)CSCC(=O)Nc2ccc(S(=O)(=O)N3CCCC3)cc2)c1,,inactive: -28.1% [at 46.1 µM]
CC(C)CC(=O)NC(=S)NNC(=O)c1ccc(NC(=O)C2CCCCC2)cc1,"inconclusive: 5.62 µM [activator, single point]",
CCN(C(=O)C1CCN(S(=O)(=O)c2cc(Br)cc3c2N(C(C)=O)CC3)CC1)c1cccc(C)c1,"inconclusive: 6.31 µM [inhibitor, full curve]",
O=C(/C=C/c1ccc(-c2ccccc2)cc1)NCc1cccnc1,"inconclusive: 35.5 µM [inhibitor, single point]",
COc1ccc(S(=O)(=O)N(C)CC(=O)NCCCn2ccnc2)cc1Cl,"inconclusive: 14.1 µM [activator, single point]",
COc1ccc2cc(/C=N/NC(=O)CSCc3ccc([N+](=O)[O-])cc3)c(Cl)nc2c1,"inconclusive: 29.1 µM [inhibitor, single point]",
COC(c1ccccc1)c1nnc(CCC(=O)NC2CCCCC2)o1 (stereo unspecified),,inactive: 0.234% [at 46.1 µM]

SMILES,Potency,"activity change, negative = inhibition"
O=C(NCc1cccs1)Nc1cc(Cl)ccc1Cl,"inconclusive: 35.5 µM [inhibitor, single point]",
CN(CCC#N)C(=O)COC(=O)c1ccc2[nH]c3c(c2c1)CCCC3,"inconclusive: 2.82 µM [inhibitor, full curve, poor fit]",
O=C(CSc1nc2ccccc2c(=O)n1-c1ccccc1)N1CCCc2ccccc21,"inconclusive: 14.1 µM [inhibitor, partial curve]",
COC(=O)c1sc(NC(=S)NC(=O)c2ccccc2)nc1C,"inconclusive: 0.794 µM [activator, full curve, poor fit]",
CC1=NN(c2ccccc2)C(=O)/C1=C\c1ccc(Br)s1,,inactive: 3.84%
CCC(=NCC1CCCO1)c1c(O)n(Cc2ccccc2)c(=O)[nH]c1=O (stereo unspecified),,inactive: 12.8%
CC(C(=O)c1ccc(-c2ccccc2)cc1)[n+]1ccccc1 (stereo unspecified),active: 10 µM,
CC(=O)c1c(C)[nH]c(C(=O)/C(C#N)=C/c2cccc(C)c2)c1C,"inconclusive: 0.562 µM [inhibitor, partial curve, poor fit]",
Cn1c(=O)cc(OCCCC(=O)NCc2ccc(F)cc2Cl)c2ccccc21,"inconclusive: 25.1 µM [inhibitor, partial curve, poor fit]",
O=C(CSC1=NCCS1)Nc1ccc(S(=O)(=O)N2CCCCCC2)cc1,"inconclusive: 14.6 µM [inhibitor, single point]",
O=C(Cc1ccc(Cl)c(Cl)c1)OCCN1CCCC1,inactive,
Cc1ccc(-n2c(SCC(=O)Nc3cccc(S(=O)(=O)NC4=NCCCCC4)c3)nc3ccccc3c2=O)cc1,,inactive: -14.6%
O=C(CCS(=O)(=O)c1ccc(Cl)cc1)NCCN1C(=O)S/C(=C\c2ccccc2F)C1=O,,inactive: -22.6%
CCN(CC)c1ccc(NC(=O)c2cnn(-c3ccccc3)c2-n2cccc2)c(C)c1,"inconclusive: 4.47 µM [inhibitor, full curve, poor fit]",
Cc1cc(OCC(=O)NCC(c2cccs2)N2CCOCC2)ccc1C(C)C (stereo unspecified),"inconclusive: 35.5 µM [inhibitor, partial curve, poor fit]",
COc1ccc(-c2nc(CSCC(=O)N3CCN(c4cc(Cl)ccc4C)CC3)c(C)o2)cc1,"inconclusive: 2.24 µM [inhibitor, partial curve, poor fit]",
CC(C)N(C(=O)COC(=O)[C@@H]1CC(O)CN1S(=O)(=O)c1ccc(C(C)(C)C)cc1)C(C)C (stereo partly specified),"inconclusive: 0.562 µM [inhibitor, full curve, poor fit]",
COc1ccc(/C=N/N2CCN(c3ccc(Cl)cc3)CC2)cc1,,inactive: -27.1%
CC(c1ccccc1)n1c(SCC(=O)Nc2ccccc2)n[nH]c1=O (stereo unspecified),"inconclusive: 7.08 µM [inhibitor, partial curve]",
CC(=O)OC(C)(C)/C=C/C(=O)[C@](C)(O)[C@H]1[C@H](O)C[C@@]2(C)[C@@H]3CC=C4[C@H](C[C@H](O)C(=O)C4(C)C)[C@]3(C)C(=O)C[C@]12C,"inconclusive: 0.146 µM [inhibitor, full curve, poor fit]",
CCN(CC)CCOC(=O)C1(c2ccccc2)CCOCC1,"inconclusive: 20 µM [activator, partial curve, poor fit]",
Cc1cc(C(=O)OCC(=O)c2ccc(Cl)c([N+](=O)[O-])c2)c2cccc(C)c2n1,"inconclusive: 6.31 µM [activator, single point]",

# Four compounds drawn at random from those above:
SMILES,Potency,"activity change, negative = inhibition"
O=C(COC(=O)c1ccccc1O)Nc1ccc2ccccc2c1,"inconclusive: 15.8 µM [inhibitor, single point]",
CC1CCN(S(=O)(=O)c2ccc(NC(=O)Cn3nnc(-c4ccccc4)n3)cc2)CC1,"inconclusive: 29.1 µM [inhibitor, single point]",
CC(C)CC(=O)NC(=S)NNC(=O)c1ccc(NC(=O)C2CCCCC2)cc1,"inconclusive: 5.62 µM [activator, single point]",
CCn1c(=O)c(C(=O)NNC(=O)Cc2ccccc2)c(O)c2ccccc21,"inconclusive: 0.562 µM [activator, full curve, poor fit]",

# Next part.

SMILES,Potency,"activity change, negative = inhibition"
Cc1cc(OC(C)C(=O)Nc2cccc(-c3nc4ccccc4o3)c2)cc(C)c1Cl (stereo unspecified),,inactive: 0.677% [at 46.1 µM]
CCN(CC)CCCN(Cc1cc2ccc(C)c(C)c2[nH]c1=O)C(=O)NC1CCCCC1,"inconclusive: 16.4 µM [inhibitor, partial curve, poor fit]",
Cc1ccc2nc(SC(C)C(=O)NC3CCCC3)[nH]c2c1 (stereo unspecified),"inconclusive: 39.8 µM [inhibitor, single point]",
CCCCCC(=C/c1ccccc1)/C=N/Nc1ccc(S(=O)(=O)N2CCOCC2)cc1[N+](=O)[O-],"inconclusive: 11.2 µM [inhibitor, partial curve, poor fit]",
COc1cccc(OCCn2cc(C=O)c3ccccc32)c1,"inconclusive: 12.6 µM [inhibitor, partial curve]",
CN(Cc1ccccc1)C(=O)COC(=O)c1cc(NS(=O)(=O)c2cccs2)ccc1O,,inactive: -14.5%
COC(=O)[C@H]1[C@@H](C)N(Cc2ccccc2)C(=O)N[C@H]1c1ccccc1,"inconclusive: 0.0067 µM [inhibitor, full curve]",
CCC(=O)CC(NC(=O)OC)c1ccccc1 (stereo unspecified),"inconclusive: 0.0335 µM [activator, full curve, poor fit]",
COCCNc1nnnc2c1sc1nc(N3CCOCC3)c3c(c12)CC(C)(C)OC3,,inactive: 8.6%
CC(C)NC(=S)N1CCN(Cc2ccc3c(c2)OCO3)CC1,,inactive: 3.21% [at 46.1 µM]
COc1ccc(-c2ccnc(SCC(=O)c3ccc(OC)c(OC)c3)n2)cc1,"inconclusive: 35.5 µM [activator, single point]",
COc1ccc(Cn2c(O)c(C=NCCN3CCOCC3)c(=O)[nH]c2=O)cc1,,inactive: 1.85%
CC(/C=C(\C)Nc1ccccc1)=Nc1ccccc1,"inconclusive: 3.55 µM [activator, full curve]",
O=C(Nc1ccccc1Cc1ccccc1)c1ccccc1NS(=O)(=O)c1ccc(Cl)s1,"inconclusive: 14.6 µM [inhibitor, partial curve, poor fit]",
Cc1ccc(NCc2n[nH]c(=S)n2Cc2ccccc2)cc1Cl,"inconclusive: 7.94 µM [inhibitor, partial curve]",
CNC(=O)c1ccsc1NC(=O)CCS(=O)(=O)c1ccc(Cl)cc1,,inactive: -17.5%
CCOC(=O)C1C(c2ccccc2Cl)NC(=O)N(C)C1(O)C(F)(F)F (stereo unspecified),"inconclusive: 0.116 µM [inhibitor, single point]",
CCOc1ccc(NC(=O)c2ccccc2OCC(=O)c2ccccc2)cc1,"inconclusive: 10.3 µM [inhibitor, partial curve]",
CC1(C)Cc2c(sc(NC(=O)COc3ccc(Cl)cc3Cl)c2C(N)=O)C(C)(C)N1,"inconclusive: 35.5 µM [inhibitor, single point]",
Cc1cccc(OC(=O)c2ccc3nccnc3c2)c1,,inactive: 0.456%
Cc1ccc(CN2CCN(/N=C\C=C\c3ccccc3)CC2)cc1,"inconclusive: 0.794 µM [inhibitor, partial curve, poor fit]",
O=C(COC(=O)c1cccc(-n2cnnn2)c1)c1ccccc1,"inconclusive: 35.5 µM [activator, single point]",
